The values below come from PMC8703407.

Chains of the proteins cited; added tags and fusions are not shown.
UniProt Q9HC16: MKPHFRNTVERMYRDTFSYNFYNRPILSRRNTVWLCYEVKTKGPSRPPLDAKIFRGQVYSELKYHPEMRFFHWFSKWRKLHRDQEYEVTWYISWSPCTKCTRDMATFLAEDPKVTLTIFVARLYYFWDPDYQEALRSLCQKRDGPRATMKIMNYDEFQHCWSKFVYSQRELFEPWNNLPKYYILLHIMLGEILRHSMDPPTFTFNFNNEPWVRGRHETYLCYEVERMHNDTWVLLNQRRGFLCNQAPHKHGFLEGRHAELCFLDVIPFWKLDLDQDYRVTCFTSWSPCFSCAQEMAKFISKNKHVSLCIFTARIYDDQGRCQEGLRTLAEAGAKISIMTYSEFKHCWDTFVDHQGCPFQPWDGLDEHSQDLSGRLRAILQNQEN

For the assay, the target named is APOBEC3G HA (UniProt Q9HC16). Put plainly: co-IP; anti-HA beads, lysate of HEK293T cells co-transfected with HA-tagged and His-tagged A3G, sample treated with RNase A (70 μg/mL); blot with anti-His.

No constants are given. Whether binding was seen depends on the method and setting. Binding seen in cells or lysates may run through a third protein.

Consider APOBEC3G HA (from UniProt Q9HC16 1-384), for which the binding entry is on record as “no binding (condition: with RNase A treatment)”.
